Consider 14 sequences from PMC12990809.

Amino acid sequences for entries named in this document (tags omitted). A change or cut given only in a name is not applied to a line headed by its entry. Chains listed by the source or under a name are the forms on record and can include a tag or linker.
UniProt Q9Y6M1: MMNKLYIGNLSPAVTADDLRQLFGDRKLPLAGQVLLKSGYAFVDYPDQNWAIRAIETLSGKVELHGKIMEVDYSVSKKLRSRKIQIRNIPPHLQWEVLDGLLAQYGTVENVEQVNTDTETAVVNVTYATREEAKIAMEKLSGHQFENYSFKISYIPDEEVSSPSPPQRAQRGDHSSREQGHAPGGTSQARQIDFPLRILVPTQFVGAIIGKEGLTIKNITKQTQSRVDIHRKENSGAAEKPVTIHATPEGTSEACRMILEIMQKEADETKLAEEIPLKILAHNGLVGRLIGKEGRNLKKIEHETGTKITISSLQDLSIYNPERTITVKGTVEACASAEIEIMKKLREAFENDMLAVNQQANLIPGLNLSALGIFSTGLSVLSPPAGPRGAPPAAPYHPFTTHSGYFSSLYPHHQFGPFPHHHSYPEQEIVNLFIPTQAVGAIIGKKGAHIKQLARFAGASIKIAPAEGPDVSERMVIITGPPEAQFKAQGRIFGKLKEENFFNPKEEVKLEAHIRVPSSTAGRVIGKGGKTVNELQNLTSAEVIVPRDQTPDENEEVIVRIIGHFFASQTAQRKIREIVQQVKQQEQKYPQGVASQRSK
UniProt Q15366, other isoform, or with tags, fused parts or gaps: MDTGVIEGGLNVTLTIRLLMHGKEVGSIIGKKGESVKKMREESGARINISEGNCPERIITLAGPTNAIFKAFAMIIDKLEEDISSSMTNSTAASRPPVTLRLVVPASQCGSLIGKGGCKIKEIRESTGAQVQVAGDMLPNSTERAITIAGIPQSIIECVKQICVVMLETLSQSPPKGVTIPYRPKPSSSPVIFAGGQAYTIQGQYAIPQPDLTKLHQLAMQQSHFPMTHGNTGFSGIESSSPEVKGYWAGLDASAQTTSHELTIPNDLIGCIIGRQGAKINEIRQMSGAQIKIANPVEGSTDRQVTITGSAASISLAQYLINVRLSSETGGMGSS
UniProt Q9ZPX8: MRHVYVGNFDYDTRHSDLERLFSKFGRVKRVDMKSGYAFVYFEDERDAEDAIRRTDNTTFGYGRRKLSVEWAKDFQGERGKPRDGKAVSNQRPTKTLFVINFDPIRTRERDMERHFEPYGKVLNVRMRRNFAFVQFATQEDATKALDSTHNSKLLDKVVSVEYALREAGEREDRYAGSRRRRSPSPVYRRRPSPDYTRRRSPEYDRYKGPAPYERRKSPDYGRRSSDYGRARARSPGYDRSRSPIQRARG

Holding throughout (assay): pull-down
The target of one series is IGF2BP2 (Homo sapiens) (UniProt Q9Y6M1). The settings on record: 20 nM protein, 1.5 uM RNA pool; 20 mM HEPES pH 7.8, 70 mM KCl, 10 mM NaCl, 10% glycerol, 2 mM DTT, 0.1 ug/uL BSA; 30 min, 4 C; purified recombinant protein; protein details: N-terminal GST (kept); only the motif is given; cited from earlier work.
Series [1] has as its target T1, Imp G35C (Drosophila melanogaster) (UniProt Q7K0H6).
T1 sequence: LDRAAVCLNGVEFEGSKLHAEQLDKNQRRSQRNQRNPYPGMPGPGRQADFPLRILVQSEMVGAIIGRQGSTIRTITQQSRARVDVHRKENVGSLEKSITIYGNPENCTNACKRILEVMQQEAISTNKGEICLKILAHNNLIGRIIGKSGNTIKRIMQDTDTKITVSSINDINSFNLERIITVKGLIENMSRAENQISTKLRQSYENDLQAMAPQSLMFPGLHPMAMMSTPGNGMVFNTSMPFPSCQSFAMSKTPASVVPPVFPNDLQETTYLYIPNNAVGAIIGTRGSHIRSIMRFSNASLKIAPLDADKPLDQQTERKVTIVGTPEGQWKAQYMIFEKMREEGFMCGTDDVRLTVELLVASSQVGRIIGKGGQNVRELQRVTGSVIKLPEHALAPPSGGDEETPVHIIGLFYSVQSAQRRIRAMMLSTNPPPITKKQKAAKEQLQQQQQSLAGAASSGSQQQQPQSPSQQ
Particulars: 20 nM protein, 1.5 uM RNA pool; 20 mM HEPES pH 7.8, 70 mM KCl, 10 mM NaCl, 10% glycerol, 2 mM DTT, 0.1 ug/uL BSA; 30 min, 4 C; purified recombinant protein; residues 29-499; protein details: N-terminal GST (kept); only the motif is given.

Series [2] deals with T2, CG4887 (Drosophila melanogaster) (UniProt M9W6K3).
T2 sequence: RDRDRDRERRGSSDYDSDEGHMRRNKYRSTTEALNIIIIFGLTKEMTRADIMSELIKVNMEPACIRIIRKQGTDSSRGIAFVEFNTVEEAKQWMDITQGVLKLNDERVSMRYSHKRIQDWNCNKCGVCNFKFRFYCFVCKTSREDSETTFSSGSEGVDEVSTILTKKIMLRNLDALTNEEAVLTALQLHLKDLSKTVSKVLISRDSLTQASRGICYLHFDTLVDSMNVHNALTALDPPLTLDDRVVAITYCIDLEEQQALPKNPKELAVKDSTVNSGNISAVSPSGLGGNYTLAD
The settings on record: 20 nM protein, 1.5 uM RNA pool; 20 mM HEPES pH 7.8, 70 mM KCl, 10 mM NaCl, 10% glycerol, 2 mM DTT, 0.1 ug/uL BSA; 30 min, 4 C; purified recombinant protein; residues 223-517; protein details: N-terminal GST (kept); only the motif is given.

The target of series [3] is T3, PK13173.1 K103R (Cannabis sativa) (UniProt A0A803Q923).
T3 sequence: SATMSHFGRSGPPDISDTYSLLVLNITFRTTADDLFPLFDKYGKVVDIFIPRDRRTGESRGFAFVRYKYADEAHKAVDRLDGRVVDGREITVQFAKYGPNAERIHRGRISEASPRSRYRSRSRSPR
The settings on record: 20 nM protein, 1.5 uM RNA pool; 20 mM HEPES pH 7.8, 70 mM KCl, 10 mM NaCl, 10% glycerol, 2 mM DTT, 0.1 ug/uL BSA; 30 min, 4 C; purified recombinant protein; residues 1-123; protein details: N-terminal GST (kept); only the motif is given.

Another series has as its target T4, MATR3 (Homo sapiens) (UniProt P43243).
T4 sequence: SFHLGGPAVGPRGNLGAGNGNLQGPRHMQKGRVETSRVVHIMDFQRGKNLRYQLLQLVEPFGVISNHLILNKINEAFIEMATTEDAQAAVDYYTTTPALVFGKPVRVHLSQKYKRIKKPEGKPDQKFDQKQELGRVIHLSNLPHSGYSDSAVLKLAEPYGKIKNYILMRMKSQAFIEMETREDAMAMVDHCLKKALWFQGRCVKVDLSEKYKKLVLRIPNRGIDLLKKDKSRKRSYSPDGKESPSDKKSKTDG
The settings on record: 20 nM protein, 1.5 uM RNA pool; 20 mM HEPES pH 7.8, 70 mM KCl, 10 mM NaCl, 10% glycerol, 2 mM DTT, 0.1 ug/uL BSA; 30 min, 4 C; purified recombinant protein; residues 362-614; protein details: N-terminal GST (kept); only the motif is given; cited from earlier work.

The target of series [4] is T5, heph (Drosophila melanogaster) (UniProt E1JJ41).
T5 sequence: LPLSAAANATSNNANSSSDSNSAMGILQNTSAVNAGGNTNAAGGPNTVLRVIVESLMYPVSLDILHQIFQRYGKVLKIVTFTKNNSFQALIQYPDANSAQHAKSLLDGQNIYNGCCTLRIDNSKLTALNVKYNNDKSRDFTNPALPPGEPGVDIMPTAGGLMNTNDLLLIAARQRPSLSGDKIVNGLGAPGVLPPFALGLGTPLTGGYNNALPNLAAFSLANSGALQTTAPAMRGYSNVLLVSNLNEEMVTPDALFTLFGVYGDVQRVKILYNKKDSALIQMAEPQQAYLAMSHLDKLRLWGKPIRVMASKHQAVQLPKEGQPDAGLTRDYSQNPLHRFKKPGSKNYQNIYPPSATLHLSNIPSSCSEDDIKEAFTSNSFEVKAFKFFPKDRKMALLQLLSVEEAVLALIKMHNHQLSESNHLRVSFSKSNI
The settings on record: 20 nM protein, 1.5 uM RNA pool; 20 mM HEPES pH 7.8, 70 mM KCl, 10 mM NaCl, 10% glycerol, 2 mM DTT, 0.1 ug/uL BSA; 30 min, 4 C; purified recombinant protein; residues 358-789; protein details: N-terminal GST (kept); only the motif is given.

The target of the next series is PCBP2 (Homo sapiens) (UniProt Q15366). The settings on record: 20 nM protein, 1.5 uM RNA pool; 20 mM HEPES pH 7.8, 70 mM KCl, 10 mM NaCl, 10% glycerol, 2 mM DTT, 0.1 ug/uL BSA; 30 min, 4 C; purified recombinant protein; only the motif is given; cited from earlier work.
The target of series [5] is T6, ANIA_03953 (Aspergillus nidulans) (UniProt Q5B677).
T6 sequence: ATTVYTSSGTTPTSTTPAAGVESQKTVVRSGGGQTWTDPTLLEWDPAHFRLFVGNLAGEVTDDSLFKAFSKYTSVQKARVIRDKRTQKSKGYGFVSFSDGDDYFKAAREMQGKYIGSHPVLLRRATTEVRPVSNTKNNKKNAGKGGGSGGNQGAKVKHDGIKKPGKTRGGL
The settings on record: 20 nM protein, 1.5 uM RNA pool; 20 mM HEPES pH 7.8, 70 mM KCl, 10 mM NaCl, 10% glycerol, 2 mM DTT, 0.1 ug/uL BSA; 30 min, 4 C; purified recombinant protein; residues 179-349; protein details: N-terminal GST (kept); only the motif is given; cited from earlier work.

Series [6] has as its target T7, RS31A (Arabidopsis thaliana) (UniProt Q9ZPX8).
T7 sequence: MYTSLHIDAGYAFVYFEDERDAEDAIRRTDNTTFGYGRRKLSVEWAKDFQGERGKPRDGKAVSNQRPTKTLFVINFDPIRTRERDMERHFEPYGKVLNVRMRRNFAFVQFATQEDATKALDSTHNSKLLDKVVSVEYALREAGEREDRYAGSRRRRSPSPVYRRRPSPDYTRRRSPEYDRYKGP
Particulars: 20 nM protein, 1.5 uM RNA pool; 20 mM HEPES pH 7.8, 70 mM KCl, 10 mM NaCl, 10% glycerol, 2 mM DTT, 0.1 ug/uL BSA; 30 min, 4 C; purified recombinant protein; residues 1-184; protein details: N-terminal GST (kept); only the motif is given.

The target in another series is T8, RBM38 (Homo sapiens) (UniProt Q9H0Z9).
T8 sequence: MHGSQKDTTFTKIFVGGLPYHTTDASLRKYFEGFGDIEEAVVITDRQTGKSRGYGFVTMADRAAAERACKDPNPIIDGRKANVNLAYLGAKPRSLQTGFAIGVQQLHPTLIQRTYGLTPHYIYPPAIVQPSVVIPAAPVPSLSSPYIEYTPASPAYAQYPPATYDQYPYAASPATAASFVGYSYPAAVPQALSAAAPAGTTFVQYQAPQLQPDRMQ
The settings on record: 20 nM protein, 1.5 uM RNA pool; 20 mM HEPES pH 7.8, 70 mM KCl, 10 mM NaCl, 10% glycerol, 2 mM DTT, 0.1 ug/uL BSA; 30 min, 4 C; purified recombinant protein; residues 24-239; protein details: N-terminal GST (kept); only the motif is given.

Series [7] concerns the target T9, PK05280.1 (Cannabis sativa) (UniProt A0A7J6GSE1).
T9 sequence: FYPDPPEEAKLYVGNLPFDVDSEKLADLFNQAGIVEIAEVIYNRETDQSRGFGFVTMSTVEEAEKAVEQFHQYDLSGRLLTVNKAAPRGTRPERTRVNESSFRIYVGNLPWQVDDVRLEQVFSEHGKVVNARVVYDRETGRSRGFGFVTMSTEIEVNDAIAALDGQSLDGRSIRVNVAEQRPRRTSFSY
The settings on record: 20 nM protein, 1.5 uM RNA pool; 20 mM HEPES pH 7.8, 70 mM KCl, 10 mM NaCl, 10% glycerol, 2 mM DTT, 0.1 ug/uL BSA; 30 min, 4 C; purified recombinant protein; residues 468-656; protein details: N-terminal GST (kept); only the motif is given.

For the next series, the target named is T10, PPRC1 (Homo sapiens) (UniProt Q5VV67).
T10 sequence: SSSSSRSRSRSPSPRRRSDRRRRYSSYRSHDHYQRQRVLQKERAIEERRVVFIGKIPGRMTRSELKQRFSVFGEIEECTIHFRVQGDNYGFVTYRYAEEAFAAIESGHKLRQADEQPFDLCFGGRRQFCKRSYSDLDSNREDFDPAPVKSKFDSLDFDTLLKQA
Particulars: 20 nM protein, 1.5 uM RNA pool; 20 mM HEPES pH 7.8, 70 mM KCl, 10 mM NaCl, 10% glycerol, 2 mM DTT, 0.1 ug/uL BSA; 30 min, 4 C; purified recombinant protein; residues 1495-1658; protein details: N-terminal GST (kept); only the motif is given; cited from earlier work.

For series [8], the target named is T11, tra2b (Tetraodon nigroviridis) (UniProt H3C228).
T11 sequence: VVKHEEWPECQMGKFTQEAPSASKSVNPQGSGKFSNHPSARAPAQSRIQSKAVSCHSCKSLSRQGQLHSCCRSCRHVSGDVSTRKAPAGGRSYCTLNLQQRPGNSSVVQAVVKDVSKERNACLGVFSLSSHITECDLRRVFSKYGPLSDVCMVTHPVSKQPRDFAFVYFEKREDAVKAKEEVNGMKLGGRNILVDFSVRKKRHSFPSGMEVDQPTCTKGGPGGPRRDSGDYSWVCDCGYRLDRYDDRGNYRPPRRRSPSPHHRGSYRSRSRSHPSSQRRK
The settings on record: 20 nM protein, 1.5 uM RNA pool; 20 mM HEPES pH 7.8, 70 mM KCl, 10 mM NaCl, 10% glycerol, 2 mM DTT, 0.1 ug/uL BSA; 30 min, 4 C; purified recombinant protein; protein details: N-terminal GST (kept); only the motif is given.

The target in the next series is T12, RBM34 (Homo sapiens) (UniProt P42696).
T12 sequence: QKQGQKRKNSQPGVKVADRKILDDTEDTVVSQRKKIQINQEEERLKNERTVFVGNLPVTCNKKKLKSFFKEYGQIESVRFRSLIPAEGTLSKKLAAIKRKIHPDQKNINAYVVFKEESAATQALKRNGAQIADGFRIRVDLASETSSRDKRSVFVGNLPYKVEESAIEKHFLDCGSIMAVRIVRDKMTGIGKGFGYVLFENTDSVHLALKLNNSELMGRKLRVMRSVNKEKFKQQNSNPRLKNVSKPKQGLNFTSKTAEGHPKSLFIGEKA
Particulars: 20 nM protein, 1.5 uM RNA pool; 20 mM HEPES pH 7.8, 70 mM KCl, 10 mM NaCl, 10% glycerol, 2 mM DTT, 0.1 ug/uL BSA; 30 min, 4 C; purified recombinant protein; residues 137-407; protein details: N-terminal GST (kept); only the motif is given.

The direction of at least one scale is not stated here. For some assays here: Where a protein sequence is shown, tags need not be part of it.

With AAACAA [RNAcompete motif RNCMPT00033], the binding signal (z-score (mean of top ten 7-mers)) with IGF2BP2 (Homo sapiens) was 5.73.

For AACAAUAG [RNAcompete motif RNCMPT00787], the binding signal (z-score (mean of top ten 7-mers)) in series [1] came to 5.31.

As to ACGAGGG [RNAcompete motif RNCMPT00838], the binding signal (z-score (mean of top ten 7-mers)) in series [2] came out at 5.93. AGAUGAA [RNAcompete motif RNCMPT00366]: in series [3], the binding signal (z-score (mean of top ten 7-mers)) is 5.75. AUCUUG [RNAcompete motif RNCMPT00037]: the binding signal (z-score (mean of top ten 7-mers)) with MATR3 (Homo sapiens) was 5.42.

In the case of AUUUUC [RNAcompete motif RNCMPT00788], the binding signal (z-score (mean of top ten 7-mers)) in series [4] was 5.47. For the sequence CCCCCCC [RNAcompete motif RNCMPT00044], the binding signal (z-score (mean of top ten 7-mers)) with PCBP2 (Homo sapiens) is 3.74.

Take CUACUA [RNAcompete motif RNCMPT00287]: in series [5], the binding signal (z-score (mean of top ten 7-mers)) is 5.22. As for GACGA [RNAcompete motif RNCMPT00329], in [6], the binding signal (z-score (mean of top ten 7-mers)) was 5.91. With GAGUGU [RNAcompete motif RNCMPT01687], in the series with RBM38 (Homo sapiens), the binding signal (z-score (mean of top ten 7-mers)) came to 5.16. As for GAUACAA [RNAcompete motif RNCMPT00862], the binding signal (z-score (mean of top ten 7-mers)) in [7] is 5.4.

GCCCGCCG [RNAcompete motif RNCMPT00045]: the binding signal (z-score (mean of top ten 7-mers)) with PPRC1 (Homo sapiens) was 5. With UCUUCAG [RNAcompete motif RNCMPT01669], the binding signal (z-score (mean of top ten 7-mers)) in [8] was determined as 5.71.

Consider UUGAC [RNAcompete motif RNCMPT00819], for which the binding signal (z-score (mean of top ten 7-mers)) with RBM34 (Homo sapiens) worked out at 5.79.
